In patent US7819855B2, “Catheter for modification of agent formulation” (Durect Corporation, priority 2001, dated 2010):

Experiment: Dilution of baclofen HCl solution during transit through Silastic tubing catheter connected to DUROS osmotic pump, immersed in water bath, HPLC analysis
Conditions: water bath 37° C., ten days; for Dilution Ratio Cι/Co: Co = 336.5 mg/cc
Description: An osmotic pump (DUROS™) was connected to an elongate body comprising a catheter coupled with a length of Silastic™ tubing having the same ID and OD as described above. The pump was filled with baclofen HCl in 100% DMSO (drug concentration (Co) 336.5 mg/cc), with the pumping rate determined to be about 3.48 μl/day (0.145 μl/hr). A mark was placed on the catheter at 5.22 cm from the connector to the pump. The pump and the section of catheter up to the mark were immersed in a water bath at 37° C. for ten days, after which the pumps were removed. The catheter were clamped at slightly above the 5.22 cm marks, and cut with a pair of scissors. The drug solution above the 5.22 cm mark was collected in separate flaks. Each catheter was further rinsed three times with 150 μl deionized water using a Hamilton syringe. The drug solution and the rinse were combined with diluted to volume for HPLC analysis to determine drug concentration.

[1] = baclofen HCl in 100% DMSO, Co 336.5 mg/cc, pumping rate about 3.48 μl/day

Compound: NCC(CC(=O)O)c1ccc(Cl)cc1 (centres unmarked) [Baclofen HCl]
- Dilution Ratio Cι/Co: 0.163 and 0.215
- Dilution Ratio Cι/Co (listed as baclofen HCl): 0.163 and 0.215
- Distance drug solution traveled above the 5.22 cm mark [1]: 5.3 cm and 7.5 cm
- Total volume of drug solution above 5.22 cm mark [1]: 0.0168 cc and 0.0238 cc
- Drug concentration (Cι) in Silastic catheter above the 5.22 cm mark (baclofen HCl in 100% DMSO, Co 336.5 mg/cc, pumping rate about 3.48 μl/day, HPLC): 54.8 mg/cc and 72.3 mg/cc

Values joined by “and” are separate entries in the source; they are usually repeats but may differ in a detail not shown here. Equal values may be shown once. Where a name gives a salt, the structure may show the parent alone.
